One substance from article PMC11046865 can be followed below.

Amino acid sequences for entries named in this document (tags omitted).
UniProt P35222: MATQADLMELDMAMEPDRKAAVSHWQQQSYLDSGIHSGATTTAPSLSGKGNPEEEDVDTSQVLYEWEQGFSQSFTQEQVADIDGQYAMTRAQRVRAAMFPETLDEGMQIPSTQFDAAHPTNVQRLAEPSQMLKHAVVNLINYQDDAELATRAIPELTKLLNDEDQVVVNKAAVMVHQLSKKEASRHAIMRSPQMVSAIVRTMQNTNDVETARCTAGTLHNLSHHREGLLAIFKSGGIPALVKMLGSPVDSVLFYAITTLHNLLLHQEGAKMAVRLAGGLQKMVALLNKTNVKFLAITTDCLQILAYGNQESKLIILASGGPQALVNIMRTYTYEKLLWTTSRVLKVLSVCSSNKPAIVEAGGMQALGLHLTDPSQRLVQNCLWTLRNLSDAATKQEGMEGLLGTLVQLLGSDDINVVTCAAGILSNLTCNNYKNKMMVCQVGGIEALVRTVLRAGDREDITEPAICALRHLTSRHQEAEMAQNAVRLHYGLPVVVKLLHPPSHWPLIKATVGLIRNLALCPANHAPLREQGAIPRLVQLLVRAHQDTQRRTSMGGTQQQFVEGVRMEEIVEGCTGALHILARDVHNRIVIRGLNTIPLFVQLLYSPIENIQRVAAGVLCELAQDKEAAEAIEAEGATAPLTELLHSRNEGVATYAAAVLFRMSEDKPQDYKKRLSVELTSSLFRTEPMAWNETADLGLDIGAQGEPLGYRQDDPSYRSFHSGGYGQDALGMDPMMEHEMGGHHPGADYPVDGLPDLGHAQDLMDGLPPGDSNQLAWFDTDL

Results are given in words; binding and its absence hold for the method and conditions named. In cells and extracts the contact can be indirect.

This test addresses ß-catenin (endogenous, HCT116) (human (endogenous in HCT116)) (UniProt P35222). The experiment in a line: co-IP; endogenous proteins in HCT116 cells; β-Cat and TCF7L2 IPs as positive controls; western blotting. (In general: A western blot detects proteins with antibodies after separation by electrophoresis.)

As for “PAX1 (endogenous, HCT116) (from UniProt P15863-1 1-534)”, the binding result is recorded as “no binding”.
